Publication PMC7372013
Results are given in words; binding and its absence hold for the method and conditions named. In cells and extracts the contact can be indirect. Some binding calls cover weakened binding; strength is not graded here.

Amino acid sequences for entries named in this document (tags omitted). Residues count along the entry.
UniProt Q07021, residues 74-282: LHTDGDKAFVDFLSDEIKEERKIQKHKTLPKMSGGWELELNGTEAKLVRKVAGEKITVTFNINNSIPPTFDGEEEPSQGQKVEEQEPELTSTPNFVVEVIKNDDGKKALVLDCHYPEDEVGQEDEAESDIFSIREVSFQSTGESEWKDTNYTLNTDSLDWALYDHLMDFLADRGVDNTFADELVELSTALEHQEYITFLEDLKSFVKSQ
UniProt O00425: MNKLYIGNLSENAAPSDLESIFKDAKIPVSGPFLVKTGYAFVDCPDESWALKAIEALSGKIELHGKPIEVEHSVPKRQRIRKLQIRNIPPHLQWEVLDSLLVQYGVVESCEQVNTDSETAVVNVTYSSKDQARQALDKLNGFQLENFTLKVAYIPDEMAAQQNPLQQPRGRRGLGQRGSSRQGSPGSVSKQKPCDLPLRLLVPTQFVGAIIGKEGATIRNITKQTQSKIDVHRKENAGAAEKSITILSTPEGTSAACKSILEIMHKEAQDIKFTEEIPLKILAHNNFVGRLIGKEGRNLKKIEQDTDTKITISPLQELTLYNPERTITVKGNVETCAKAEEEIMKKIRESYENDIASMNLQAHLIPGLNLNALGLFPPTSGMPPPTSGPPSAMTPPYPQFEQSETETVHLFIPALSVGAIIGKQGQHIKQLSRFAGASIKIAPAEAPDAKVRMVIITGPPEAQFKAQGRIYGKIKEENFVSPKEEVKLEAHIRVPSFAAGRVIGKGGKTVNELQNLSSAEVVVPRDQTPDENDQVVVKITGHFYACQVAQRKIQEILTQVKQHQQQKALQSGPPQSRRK

Molecular target: Globular C1q receptor (human (endogenous in H929, U266, MM1S)) (UniProt Q07021)
Test: co-IP; anti-gC1qR immunoprecipitation from H929 and U266 lysates, Western blot for IGF2BP3; cells treated with C1q or BSA

## insulin-like growth factor 2 mRNA binding protein 3 (from UniProt O00425 1-579)
  binding: binds
